Targets include Orai1 R91C H134A (human) (UniProt Q96D31); Orai1 R91C (human) (UniProt Q96D31); Orai1 V102C (human) (UniProt Q96D31).
Assay in all cases: cross-linking
Experiment [1] has as its target Orai1 R91C H134A E149K (human) (UniProt Q96D31).
Experiment [2] addresses Orai1 K85E R91C H134A (human) (UniProt Q96D31).
Experiment [3] concerns the target Orai1 R91C H134A S239W (human) (UniProt Q96D31).
Experiment [4] deals with Orai1 R91C H134A L174D (human) (UniProt Q96D31).
Experiment [5] has as its target Orai1 K85E V102C H134A (human) (UniProt Q96D31).
The target of experiment [6] is Orai1 V102C H134A (human) (UniProt Q96D31).

Chains of the proteins cited; added tags and fusions are not shown. Lines headed by an entry give the natural chain unless they say otherwise; changes in a name come on top.
UniProt Q96D31: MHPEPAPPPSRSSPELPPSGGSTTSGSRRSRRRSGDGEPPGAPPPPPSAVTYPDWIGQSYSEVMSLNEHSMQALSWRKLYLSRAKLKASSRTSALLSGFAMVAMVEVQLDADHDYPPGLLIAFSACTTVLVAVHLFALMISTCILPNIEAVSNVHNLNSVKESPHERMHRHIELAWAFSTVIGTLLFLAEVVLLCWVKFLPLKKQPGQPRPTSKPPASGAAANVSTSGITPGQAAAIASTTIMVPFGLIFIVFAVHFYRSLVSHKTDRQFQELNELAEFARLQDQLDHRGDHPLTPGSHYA

No constants are given. Whether binding was seen depends on the method and setting. Binding seen in cells or lysates may run through a third protein. Some results given as binding are weak or reduced against the parent protein; the word gives no strength.

As for “Orai1 R91C H134A E149K (from UniProt Q96D31-1 1-301)”, the binding entry in experiment [1] is recorded as “binds”.

Take “Orai1 K85E R91C H134A (from UniProt Q96D31-1 1-301)”: the binding entry in experiment [2] is “binds”.

As for “Orai1 R91C H134A (from UniProt Q96D31-1 1-301)”, the binding entry with Orai1 R91C H134A (human) is reported as “binds”.

For the substance “Orai1 R91C H134A S239W (from UniProt Q96D31-1 1-301)”, the binding entry in experiment [3] was “binds”.

As for “Orai1 R91C H134A L174D (from UniProt Q96D31-1 1-301)”, the binding result in experiment [4] is “binds”.

For the substance “Orai1 K85E V102C H134A (from UniProt Q96D31-1 1-301)”, in experiment [5], the binding result is listed as “binds”.

For the substance “Orai1 V102C H134A (from UniProt Q96D31-1 1-301)”, the binding result in experiment [6] was “binds”.

Take “Orai1 R91C (from UniProt Q96D31-1 1-301)”: the binding result with Orai1 R91C (human) is recorded as “binds”.

Consider “Orai1 V102C (from UniProt Q96D31-1 1-301)”, for which the binding result with Orai1 V102C (human) was “binds”.
